Taken from: PubChem BioAssay AID1053208 (Peter MacCallum Cancer Centre, 2014)
Here is an unselected part of about 17,000 deposited reagents. Over the whole deposit, 788 (4.7%) got an active call. 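Calls rest on z-score classes alone; an extra cut-off of viability at most 70% of control was not applied to them.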 Entries without a mark were called inactive.

Test: 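Synthetic lethal interactions between gene loss and doxorubicin in osteosarcoma cells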 (primary screen)
Cells: mouse osteosarcoma cells, early-passage culture from an engineered mouse model of fibroblastic bone tumour
Reagent: siRNA pool against mouse genes, 40 nM
Time to read-out: about 120 h (48 h before drug, then 72 h with drug)
Treatment: doxorubicin 100 nM for 72 h, roughly 30-40% inhibitory dose
Measurement: 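Viability read as ATP luminescence after 72 h of 100 nM doxorubicin or none, duplicate wells averaged, scaled to non-targeting siRNA, then expressed as robust z-scores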
Scale: viability z-score with doxorubicin and doxorubicin viability vs non-targeting: higher = more viable cells under doxorubicin; viability z-score without drug: higher = more viable cells with knock-down alone; z-score of drug to no-drug ratio: higher = less drug sensitisation by knock-down
Call rule: 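a pool counts as active when its viability z-score with doxorubicin is -2 or below and its z-score without drug lies between -2 and 2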

target gene | combined z-score class | viability z-score with doxorubicin | viability z-score without drug | z-score of drug to no-drug ratio | doxorubicin viability vs non-targeting
Gpr61 (G protein-coupled receptor 61) | no change with or without drug | 0.11 | -0.51 | 0.56 | 0.95
Calcr (calcitonin receptor) | no change with or without drug | 0.34 | 1.35 | -0.45 | 0.97
Fhod1 (formin homology 2 domain containing 1) | no change with or without drug | 0.9 | 0.84 | 0.45 | 1.02
Tspan18 (tetraspanin 18) | no change with or without drug | -1.24 | -1.52 | -0.11 | 0.83
Rabl2 (RAB, member RAS oncogene family-like 2) | no change with or without drug | 0.22 | -0.67 | 0.79 | 0.96
Tha1 (threonine aldolase 1) | no change with or without drug | -0.22 | -0.51 | 0.22 | 0.92
Vmn1r48 (vomeronasal 1 receptor 48) | no change with or without drug | -0.22 | 0.17 | -0.22 | 0.92
Numa1 (nuclear mitotic apparatus protein 1) | no change with or without drug | -0.67 | -0.67 | -0.11 | 0.88
Zfp105 (zinc finger protein 105) | no change with or without drug | -0.22 | 1.35 | -1.01 | 0.92
Nt5c3b (5'-nucleotidase, cytosolic IIIB) | no change with or without drug | 0.9 | -0.17 | 1.24 | 1.02
Spo11 (SPO11 initiator of meiotic double stranded breaks) | no change with or without drug | 0.67 | 0.17 | 0.67 | 1
Ccdc39 (coiled-coil domain containing 39) | low cell count without drug only | -0.22 | -2.53 | 1.91 | 0.92
Btc (betacellulin, epidermal growth factor family member) | no change with or without drug | -0.67 | 0.51 | -0.9 | 0.88
Zfp428 (zinc finger protein 428) | no change with or without drug | -0.22 | 0.67 | -0.56 | 0.92
Plin2 (perilipin 2) | no change with or without drug | -0.22 | -1.18 | 0.79 | 0.92
Txnrd2 (thioredoxin reductase 2) | no change with or without drug | 0.22 | 0.51 | 0 | 0.96
Tmem101 (transmembrane protein 101) | no change with or without drug | 0.79 | 0.17 | 0.79 | 1.01
Cep83os (centrosomal protein 83, opposite strand) | low cell count without drug only | -0.9 | -2.19 | 0.79 | 0.86

A run of entries of the results above:
target gene | combined z-score class | viability z-score with doxorubicin | viability z-score without drug | z-score of drug to no-drug ratio | doxorubicin viability vs non-targeting
Vmn1r48 (vomeronasal 1 receptor 48) | no change with or without drug | -0.22 | 0.17 | -0.22 | 0.92
Numa1 (nuclear mitotic apparatus protein 1) | no change with or without drug | -0.67 | -0.67 | -0.11 | 0.88
Zfp105 (zinc finger protein 105) | no change with or without drug | -0.22 | 1.35 | -1.01 | 0.92
Nt5c3b (5'-nucleotidase, cytosolic IIIB) | no change with or without drug | 0.9 | -0.17 | 1.24 | 1.02
Spo11 (SPO11 initiator of meiotic double stranded breaks) | no change with or without drug | 0.67 | 0.17 | 0.67 | 1
Ccdc39 (coiled-coil domain containing 39) | low cell count without drug only | -0.22 | -2.53 | 1.91 | 0.92
Btc (betacellulin, epidermal growth factor family member) | no change with or without drug | -0.67 | 0.51 | -0.9 | 0.88
Zfp428 (zinc finger protein 428) | no change with or without drug | -0.22 | 0.67 | -0.56 | 0.92

More records follow.
target gene | combined z-score class | viability z-score with doxorubicin | viability z-score without drug | z-score of drug to no-drug ratio | doxorubicin viability vs non-targeting
Hoxb1 (homeobox B1) | no change with or without drug | -0.45 | -1.52 | 0.79 | 0.9
Xtbd1 (XRN2 binding domain containing 1) | no change with or without drug | -0.56 | 1.52 | -1.35 | 0.89
Cyb5r4 (cytochrome b5 reductase 4) | no change with or without drug | 0.45 | -1.18 | 1.46 | 0.98
Or7g30 (olfactory receptor family 7 subfamily G member 30) | no change with or without drug | -0.67 | 0.17 | -0.67 | 0.88
Or9m2 (olfactory receptor family 9 subfamily M member 2) | no change with or without drug | 0.56 | -0.67 | 1.24 | 0.99
Donson (downstream neighbor of SON) | high cell count without drug only | -0.9 | 2.36 | -2.14 | 0.86
Dzip1l (DAZ interacting protein 1-like) | no change with or without drug | 1.35 | 1.18 | 0.67 | 1.06
Lgi2 (leucine-rich repeat LGI family, member 2) | no change with or without drug | 0.34 | 0.51 | 0.11 | 0.97
Vmn1r232 (vomeronasal 1 receptor 232) | low cell count with doxorubicin only (active) | -2.25 | 0.17 | -2.36 | 0.74
C4b (complement C4B) | no change with or without drug | 0.67 | 0.67 | 0.34 | 1
Slc35f5 | low cell count with doxorubicin only (active) | -5.17 | 0.17 | -5.4 | 0.48
Zbtb33 (zinc finger and BTB domain containing 33) | no change with or without drug | -0.11 | 0.67 | -0.45 | 0.93
Thpo (thrombopoietin) | no change with or without drug | 0 | 1.18 | -0.67 | 0.94
Gpx7 (glutathione peroxidase 7) | no change with or without drug | 0.9 | -0.17 | 1.24 | 1.02
Cd248 (CD248 antigen, endosialin) | no change with or without drug | -0.9 | -0.17 | -0.79 | 0.86
Klhl26 (kelch-like 26) | no change with or without drug | 0.9 | 1.85 | -0.22 | 1.02
Acat1 (acetyl-Coenzyme A acetyltransferase 1) | no change with or without drug | -1.91 | -1.52 | -0.9 | 0.77
Ifne (interferon epsilon) | no change with or without drug | -1.35 | 0.34 | -1.46 | 0.82
B3gnt3 | no change with or without drug | -0.9 | 0.34 | -1.01 | 0.86
Gopc (golgi associated PDZ and coiled-coil motif containing) | no change with or without drug | -0.22 | 1.18 | -0.9 | 0.92
Slc25a25 | no change with or without drug | 0.45 | -0.51 | 1.01 | 0.98
Kdm4d (lysine (K)-specific demethylase 4D) | no change with or without drug | 1.01 | 1.35 | 0.22 | 1.03
Plekhf2 (pleckstrin homology and FYVE domain containing 2) | no change with or without drug | -1.8 | 0 | -1.8 | 0.78
Agfg1 (ArfGAP with FG repeats 1) | no change with or without drug | -0.22 | -0.17 | 0 | 0.92
Ube2f (ubiquitin-conjugating enzyme E2F (putative)) | no change with or without drug | -0.34 | 0.17 | -0.34 | 0.91
Papolb (poly (A) polymerase beta (testis specific)) | no change with or without drug | 1.12 | 1.18 | 0.45 | 1.04
Cyp2b19 (cytochrome P450, family 2, subfamily b, polypeptide 19) | no change with or without drug | -0.45 | -0.17 | -0.22 | 0.9
Cd5l (CD5 antigen-like) | no change with or without drug | -0.9 | -1.01 | -0.11 | 0.86
Txn2 (thioredoxin 2) | no change with or without drug | -1.35 | 0.34 | -1.46 | 0.82
Mrpl50 (mitochondrial ribosomal protein L50) | no change with or without drug | 0.34 | -1.85 | 1.91 | 0.97
Ythdf2 (YTH N6-methyladenosine RNA binding protein 2) | high cell count without drug only | 1.57 | 2.19 | 0.22 | 1.08
Gnl2 (guanine nucleotide binding protein nucleolar 2) | no change with or without drug | -1.69 | -1.85 | -0.45 | 0.79
